From PubChem BioAssay AID248 (DTP/NCI, 2004)
The list shows only some results of the screen, not a fair sample: it is rich in T/C values a quarter to a half above the control, in often repeated tests (any T/C) and in doses without a T/C. Further doses and runs are listed elsewhere. T/C is the treated group as % of the vehicle group. Some entries give survivors of the animals treated and no T/C: the source files T/C as zero there, which appears to mark a toxic dose or a test without result, not a measured value. Some survivor counts are full or nearly so, which does not show that the dose was tolerated: the source hardly ever lists a survival T/C far under the control, and the zero likely stands for such cases as well. Survivors were counted at the toxicity check, usually on the fifth day, unless a day is given; later deaths do not show. Schedule codes are those of the source, taken here to give the interval after Q, in days (D) or hours (H), and the number of doses after X. Some entries hold several experiments; the values are given in rising order. For survival time, the PubChem record calls one and a half times the control and up active, and a quarter to a half above the control has no call in these data; cut-offs in other NCI protocols can differ. Some schedule codes hold Z or #, which are not explained here.

System: L1210 leukemia ip in BDF1 mice, survival T/C
Experiment: NCI In Vivo Anticancer Drug Screen. Data for tumor model L1210 Leukemia (intraperitoneal) in B6D2F1 (BDF1) mice
Details: T/C endpoint: mean survival time, higher T/C = longer survival
[1] = dose: 400.0 mg/kg/injection, schedule: Q04DX003 (ip), vehicle: saline with Tween-80
[2] = dose: 400.0 mg/kg/injection, schedule: Q04DX003 (ip), vehicle: Klucel (hydroxypropylcellulose) (HPC)
[3] = dose: 100.0 mg/kg/injection, schedule: Q01DX009 (ip), vehicle: saline
[4] = dose: 200.0 mg/kg/injection, schedule: Q01DX009 (ip), vehicle: saline
[5] = dose: 400.0 mg/kg/injection, schedule: Q04DX003 (ip), vehicle: saline
[6] = dose: 200.0 mg/kg/injection, schedule: Q04DX003 (ip), vehicle: saline
[7] = dose: 200.0 mg/kg/injection, schedule: Q04DX003 (ip), vehicle: saline with Tween-80
[8] = dose: 200.0 mg/kg/injection, schedule: Q01DX001 (ip), vehicle: saline
[9] = dose: 400.0 mg/kg/injection, schedule: Q01DX001 (ip), vehicle: saline

O=C1C(=O)C(CCc2ccccc2)C(=O)/C1=C\c1ccccc1 (stereo unspecified) was tested, and the survivor count [1] was 2 of 6.

CCOC(=O)/C(N=O)=C(/O)c1ccncc1 was tested, and the survivor count [2] was 6 of 6.

In the case of O=C(c1ccccc1[N+](=O)[O-])C(Br)C(Br)c1cccc2ccccc12 (stereo unspecified), the survivor count (dose: 100.0 mg/kg/injection, schedule: Q04DX002 (ip), vehicle: saline with Tween-80) is reported as 3 of 3 and the survivor count (dose: 400.0 mg/kg/injection, schedule: Q04DX002 (ip), vehicle: saline with Tween-80) is reported as 3 of 3 and 6 of 6.

In the case of CC(=O)NN=C(C)C, the survivor count [3] is reported as 2 of 6, the survivor count [4] is reported as 3 of 6 and the survivor count [5] is reported as 3 of 6.

With C1CC2CCC1CNC2 the survivor count [6] was 1 of 6.

With Cc1cc(C)nc(NC(=O)Nc2cc(Cl)ccc2C)c1 the survivor count (dose: 100.0 mg/kg/injection, schedule: Q01DX009 (ip), vehicle: Klucel (hydroxypropylcellulose) (HPC)) was 3 of 3.

With Cc1cccn2c(=O)cc(Cl)nc12 the survivor count (dose: 400.0 mg/kg/injection, schedule: Q01DX001 (ip), vehicle: carboxymethylcellulose (CMC)) was 1 of 4.

In the case of COc1ccc(Cc2nccc3c(OC)c(OC)ccc23)cc1OC, the survivor count [4] is reported as 4 of 6 and the survivor count [5] is reported as 0 of 6.

O=C(SCCN1CCCC1)N1c2ccccc2Sc2ccc(Cl)cc21 was tested, and the survivor count (dose: 300.0 mg/kg/injection, schedule: Q01DX001 (ip), vehicle: carboxymethylcellulose (CMC)) was 0 of 6.

With Cc1[nH]nc2c(=O)[nH]c3ccccc3c12 the survivor count (dose: 75.0 mg/kg/injection, schedule: Q01DX001 (ip), vehicle: Klucel (hydroxypropylcellulose) (HPC)) was 6 of 6.

In the case of N#CCCP(CCC#N)CCCCCCP(CCC#N)CCC#N, the survivor count [7] is reported as 3 of 6 and the survivor count [1] is reported as 0 of 6.

In the case of [N-]=[N+]=CC(=O)NCC(N)=O, the T/C (dose: 250.0 mg/kg/injection, schedule: Q01DX009 (ip), vehicle: other) is reported as 129 % of control, the T/C (dose: 333.0 mg/kg/injection, schedule: Q01DX Z (ip), vehicle: water) is reported as 131 % of control and the T/C (dose: 500.0 mg/kg/injection, schedule: Q01DX009 (ip), vehicle: other) is reported as 126 % of control. For the same molecule, the T/C (dose: 500.0 mg/kg/injection, schedule: Q01DX Z (ip), vehicle: water) was 145 % of control and the survivor count (dose: 750.0 mg/kg/injection, schedule: Q01DX009 (ip), vehicle: other) was 6 of 6.

For CCCCC(/C=C1/CCCCC1=O)CC (stereo unspecified), the survivor count (dose: 400.0 mg/kg/injection, schedule: Q01DX009 (ip), vehicle: Klucel (hydroxypropylcellulose) (HPC)) was 6 of 6.

For N/C(=N/O)c1cn(C2OC(CO)C(O)C2O)c2ncnc(NO)c12 (stereo unspecified), the T/C (dose: 3.12 mg/kg/injection, schedule: Q01DX009 (ip), vehicle: saline) was 138 % of control, the T/C (dose: 6.25 mg/kg/injection, schedule: Q01DX009 (ip), vehicle: saline) was 130 % of control and the T/C (dose: 12.5 mg/kg/injection, schedule: Q01DX005 (ip), vehicle: saline) was 137 % of control. The survivor count (dose: 25.0 mg/kg/injection, schedule: Q01DX005 (ip), vehicle: saline) was 6 of 6, the survivor count (dose: 50.0 mg/kg/injection, schedule: Q01DX005 (ip), vehicle: saline) was 1 of 6 and the survivor count (dose: 50.0 mg/kg/injection, schedule: Q01DX009 (ip), vehicle: saline) was 5 of 6. The survivor count (dose: 100.0 mg/kg/injection, schedule: Q01DX005 (ip), vehicle: saline) was 0 of 6, the survivor count [3] was 0 of 6 and the survivor count (dose: 200.0 mg/kg/injection, schedule: Q01DX005 (ip), vehicle: saline) was 0 of 6.

In the case of Cc1cc[n+](CCCCCCCCCO)cc1, the survivor count [8] is reported as 3 of 6 and the survivor count [9] is reported as 0 of 5.

O=[N+]([O-])c1cc([N+](=O)[O-])c(Br)cc1Cl was tested, and the survivor count (dose: 40.0 mg/kg/injection, schedule: Q04DX003 (ip), vehicle: Klucel (hydroxypropylcellulose) (HPC)) was 0 of 6, the survivor count (dose: 75.0 mg/kg/injection, schedule: Q04DX003 (ip), vehicle: Klucel (hydroxypropylcellulose) (HPC)) was 6 of 6 and the survivor count (dose: 150.0 mg/kg/injection, schedule: Q04DX003 (ip), vehicle: Klucel (hydroxypropylcellulose) (HPC)) was 6 of 6. The survivor count (dose: 300.0 mg/kg/injection, schedule: Q04DX003 (ip), vehicle: Klucel (hydroxypropylcellulose) (HPC)) was 6 of 6.

Oc1cccc2ccc3cccc(O)c3c12 was tested, and the survivor count (dose: 400.0 mg/kg/injection, schedule: Q04DX003 (ip), vehicle: alcohol) was 0 of 6.

For CCOC(=O)/C(=C/c1ccc(C)cc1)P(=O)(OCC)OCC, the survivor count [8] was 0 of 4 and the survivor count [9] was 0 of 4.

CCCCCCCCCCCCCC[N+]1(C)CCS(=O)CC1 (stereo unspecified) was tested, and the survivor count (dose: 100.0 mg/kg/injection, schedule: Q01DX001 (ip), vehicle: saline) was 3 of 6, the survivor count [8] was 0 of 6 and the survivor count [9] was 0 of 6.

In the case of COC(OC)C1OC(c2ccccc2)OC2COC(c3ccccc3)OC21 (stereo unspecified), the survivor count (dose: 100.0 mg/kg/injection, schedule: Q04DX003 (ip), vehicle: saline with Tween-80) is reported as 6 of 6, the survivor count [7] is reported as 6 of 6 and the survivor count [1] is reported as 6 of 6.

With O=C(C[n+]1ccccc1Cc1ccccc1)c1ccccc1 the survivor count [7] was 1 of 3, the survivor count [6] was 0 of 6 and the survivor count [1] was 0 of 3. For the same molecule, the survivor count [5] was 0 of 6.

With CNC(=O)OCC1=CC(=O)C(OC)=CC1=O the survivor count (dose: 1.5 mg/kg/injection, schedule: Q01DX009 (ip), vehicle: Klucel (hydroxypropylcellulose) (HPC)) was 6 of 6, the survivor count (dose: 6.0 mg/kg/injection, schedule: Q01DX009 (ip), vehicle: Klucel (hydroxypropylcellulose) (HPC)) was 5 of 6 and the survivor count (dose: 12.0 mg/kg/injection, schedule: Q01DX009 (ip), vehicle: Klucel (hydroxypropylcellulose) (HPC)) was 6 of 6. For the same molecule, the survivor count (dose: 50.0 mg/kg/injection, schedule: Q04DX003 (ip), vehicle: Klucel (hydroxypropylcellulose) (HPC)) was 0 of 6, the survivor count (dose: 100.0 mg/kg/injection, schedule: Q04DX003 (ip), vehicle: Klucel (hydroxypropylcellulose) (HPC)) was 1 of 6 and the survivor count (dose: 200.0 mg/kg/injection, schedule: Q04DX003 (ip), vehicle: Klucel (hydroxypropylcellulose) (HPC)) was 0 of 6. For the same molecule, the survivor count [2] was 0 of 6.

With CN1C(=O)N(C)C(=O)C(Cc2ccccc2)(Cc2ccccc2)C1=O the survivor count (dose: 40.0 mg/kg/injection, schedule: Q01DX001 (ip), vehicle: saline) was 3 of 6, the survivor count (dose: 75.0 mg/kg/injection, schedule: Q01DX001 (ip), vehicle: saline) was 0 of 6 and the survivor count (dose: 150.0 mg/kg/injection, schedule: Q01DX001 (ip), vehicle: saline) was 0 of 6. For the same molecule, the survivor count (dose: 300.0 mg/kg/injection, schedule: Q01DX001 (ip), vehicle: saline) was 0 of 6.

With N#CCCC(C#N)(c1ccncc1)N1CCOCC1 (stereo unspecified) the survivor count (dose: 100.0 mg/kg/injection, schedule: Q01DX009 (ip), vehicle: saline with Tween-80) was 0 of 3 and the survivor count (dose: 200.0 mg/kg/injection, schedule: Q01DX009 (ip), vehicle: saline with Tween-80) was 0 of 3.

CCCCCCCCCCCC(=O)NC(=S)Nc1cccc2ccccc12 was tested, and the survivor count [2] was 6 of 6.

For S=C(Nc1ccccc1)NC1CCC(CC2CCCCC2)CC1 (stereo unspecified), the survivor count (dose: 300.0 mg/kg/injection, schedule: Q01DX009 (ip), vehicle: Klucel (hydroxypropylcellulose) (HPC)) was 3 of 6 and the survivor count [2] was 3 of 6.
